Assay results taken from article PMC9692045.
Substitutions are numbered along the chain they refer to. These are yes or no findings as the source states them, for the method shown. In cells and extracts the contact can be indirect. Some results given as binding are weak or reduced against the parent protein; the word gives no strength. For part of these data: Tags and fused reporters may be left off the sequences shown. Blank lines part the entries; values can stand above or below the molecule they belong to.

Amino acid sequences for entries named in this document (tags omitted).
UniProt Q61221: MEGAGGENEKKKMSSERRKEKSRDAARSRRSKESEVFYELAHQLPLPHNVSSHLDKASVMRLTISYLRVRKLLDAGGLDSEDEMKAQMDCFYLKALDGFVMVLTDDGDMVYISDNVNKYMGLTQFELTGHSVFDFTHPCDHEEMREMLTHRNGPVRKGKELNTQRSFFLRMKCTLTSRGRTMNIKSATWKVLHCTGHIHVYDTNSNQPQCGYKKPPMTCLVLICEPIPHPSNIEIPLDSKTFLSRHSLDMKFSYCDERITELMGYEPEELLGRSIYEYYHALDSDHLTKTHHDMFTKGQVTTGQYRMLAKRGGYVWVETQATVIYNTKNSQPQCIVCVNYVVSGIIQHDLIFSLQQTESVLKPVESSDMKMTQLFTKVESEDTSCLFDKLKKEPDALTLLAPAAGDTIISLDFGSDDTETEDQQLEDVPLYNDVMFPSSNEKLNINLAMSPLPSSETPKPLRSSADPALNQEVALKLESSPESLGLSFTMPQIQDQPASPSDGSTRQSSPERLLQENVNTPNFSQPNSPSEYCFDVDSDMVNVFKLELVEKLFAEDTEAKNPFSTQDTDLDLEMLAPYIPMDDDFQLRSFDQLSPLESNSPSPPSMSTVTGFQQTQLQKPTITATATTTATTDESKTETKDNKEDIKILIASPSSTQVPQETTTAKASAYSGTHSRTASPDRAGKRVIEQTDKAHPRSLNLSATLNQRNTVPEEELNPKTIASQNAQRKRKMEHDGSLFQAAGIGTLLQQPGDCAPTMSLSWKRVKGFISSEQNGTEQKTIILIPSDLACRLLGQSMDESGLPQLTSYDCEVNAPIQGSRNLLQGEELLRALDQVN
UniProt Q16665: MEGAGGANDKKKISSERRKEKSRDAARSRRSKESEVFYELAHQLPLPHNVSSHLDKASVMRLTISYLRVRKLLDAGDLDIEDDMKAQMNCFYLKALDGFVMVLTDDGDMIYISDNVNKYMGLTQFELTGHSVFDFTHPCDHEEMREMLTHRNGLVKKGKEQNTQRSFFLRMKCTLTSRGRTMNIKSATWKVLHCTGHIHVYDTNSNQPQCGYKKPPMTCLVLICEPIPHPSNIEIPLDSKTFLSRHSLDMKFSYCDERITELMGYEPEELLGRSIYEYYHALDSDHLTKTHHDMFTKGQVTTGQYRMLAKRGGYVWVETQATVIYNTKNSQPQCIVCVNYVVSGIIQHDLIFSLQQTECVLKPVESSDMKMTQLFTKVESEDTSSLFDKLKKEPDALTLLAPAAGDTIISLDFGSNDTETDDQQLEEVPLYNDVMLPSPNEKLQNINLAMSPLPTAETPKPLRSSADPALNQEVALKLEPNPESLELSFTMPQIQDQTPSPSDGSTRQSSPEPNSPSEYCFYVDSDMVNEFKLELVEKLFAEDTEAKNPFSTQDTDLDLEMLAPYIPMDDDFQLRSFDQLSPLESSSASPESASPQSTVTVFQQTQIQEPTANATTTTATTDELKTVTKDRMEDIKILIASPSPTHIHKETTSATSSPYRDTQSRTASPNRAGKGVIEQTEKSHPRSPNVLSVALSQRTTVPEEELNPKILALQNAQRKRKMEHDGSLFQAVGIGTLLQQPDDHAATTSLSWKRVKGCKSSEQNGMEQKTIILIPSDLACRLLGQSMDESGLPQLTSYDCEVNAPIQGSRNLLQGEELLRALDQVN

Assays:
HA-SMYD3 [1] = biological target: T1, HA-SMYD3 (UniProt Q9H7B4); assay: co-IP; semiendogenous: ectopic HA-tagged SMYD3 with endogenous HIF1α, cells under hypoxia; cell line and precipitating antibody not shown
T1 sequence: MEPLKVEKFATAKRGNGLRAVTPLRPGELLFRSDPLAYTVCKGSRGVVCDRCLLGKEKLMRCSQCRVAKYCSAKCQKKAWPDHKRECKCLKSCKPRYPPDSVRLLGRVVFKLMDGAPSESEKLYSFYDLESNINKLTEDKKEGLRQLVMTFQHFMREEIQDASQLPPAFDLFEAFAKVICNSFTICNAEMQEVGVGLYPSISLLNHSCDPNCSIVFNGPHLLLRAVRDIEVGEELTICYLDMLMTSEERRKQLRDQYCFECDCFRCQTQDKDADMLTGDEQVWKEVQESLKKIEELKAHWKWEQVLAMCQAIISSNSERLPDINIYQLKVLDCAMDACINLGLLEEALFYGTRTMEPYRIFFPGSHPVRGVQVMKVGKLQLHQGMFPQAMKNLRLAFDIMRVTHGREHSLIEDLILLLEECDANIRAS

HA-SMYD3-F183A [2] = biological target: T2, HA-SMYD3-F183A (UniProt Q9H7B4); assay: as above
T2 sequence: T1 sequence with F183A

[3] = biological target: T3, endogenous SMYD3 in HEK293T cells (human (endogenous in HEK293T)) (UniProt Q9H7B4); assay: co-IP; endogenous proteins in HEK293T cells under hypoxia; precipitating antibody not shown
T3 sequence: T1 sequence

HA-SMYD3 [4] = biological target: T1, HA-SMYD3; assay: co-IP; HEK293T cells co-transfected with the plasmids for 24 h; anti-HA antibody-conjugated agarose beads for immunoprecipitation, immunoblotting; normoxia stated for Fig. 5C
HA-SMYD3-F183A [5] = biological target: T2, HA-SMYD3-F183A; assay: as above
[6] = biological target: endogenous Hif1α in MEF cells (mouse (endogenous in MEF)) (UniProt Q61221); assay: co-IP; endogenous proteins in Smyd3+/+ MEF cells (Smyd3-/- MEF cells as control) under hypoxia for 4 h; anti-HIF1α antibody for immunoprecipitation

Molecule: endogenous HIF1α (semiendogenous co-immunoprecipitation, under hypoxia) (from UniProt Q16665 1-826)
- binding (HA-SMYD3 [1]): binds
- binding (HA-SMYD3-F183A [2]): binds

Molecule: endogenous HIF1α in HEK293T cells (from UniProt Q16665 1-826)
- binding [3]: binds

Continued, values first:

- binding (HA-SMYD3 [4]): binds
- binding (HA-SMYD3-F183A [5]): binds
Molecule: Myc-HIF1α (from UniProt Q16665 1-826)

- binding [6]: binds
B1: endogenous Smyd3 in MEF cells (protein, UniProt Q9CWR2 1-428)
chain: MEALKVEKFTTANRGNGLRAVAPLRPGELLFRSDPLAYTVCKGSRGVVCDRCLLGKEKLMRCSQCRIAKYCSAKCQKKAWPDHRRECSCLKSCKPRYPPDSVRLLGRVIVKLMDEKPSESEKLYSFYDLESNISKLTEDKKEGLRQLAMTFQHFMREEIQDASQLPPSFDLFEAFAKVICNSFTICNAEMQEVGVGLYPSMSLLNHSCDPNCSIVFNGPHLLLRAVREIEAGEELTICYLDMLMTSEERRKQLRDQYCFECDCIRCQTQDKDADMLTGDEQIWKEVQESLKKIEELKAHWKWEQVLALCQAIINSNSNRLPDINIYQLKVLDCAMDACINLGMLEEALFYAMRTMEPYRIFFPGSHPVRGVQVMKVGKLQLHQGMFPQAMKNLRLAFDIMKVTHGREHSLIEDLILLLEECDANIRAS
